## Percent effect of library compounds

Chains of the proteins cited; added tags and fusions are not shown. Residues count along the entry.
UniProt I6X8D2, whole entry: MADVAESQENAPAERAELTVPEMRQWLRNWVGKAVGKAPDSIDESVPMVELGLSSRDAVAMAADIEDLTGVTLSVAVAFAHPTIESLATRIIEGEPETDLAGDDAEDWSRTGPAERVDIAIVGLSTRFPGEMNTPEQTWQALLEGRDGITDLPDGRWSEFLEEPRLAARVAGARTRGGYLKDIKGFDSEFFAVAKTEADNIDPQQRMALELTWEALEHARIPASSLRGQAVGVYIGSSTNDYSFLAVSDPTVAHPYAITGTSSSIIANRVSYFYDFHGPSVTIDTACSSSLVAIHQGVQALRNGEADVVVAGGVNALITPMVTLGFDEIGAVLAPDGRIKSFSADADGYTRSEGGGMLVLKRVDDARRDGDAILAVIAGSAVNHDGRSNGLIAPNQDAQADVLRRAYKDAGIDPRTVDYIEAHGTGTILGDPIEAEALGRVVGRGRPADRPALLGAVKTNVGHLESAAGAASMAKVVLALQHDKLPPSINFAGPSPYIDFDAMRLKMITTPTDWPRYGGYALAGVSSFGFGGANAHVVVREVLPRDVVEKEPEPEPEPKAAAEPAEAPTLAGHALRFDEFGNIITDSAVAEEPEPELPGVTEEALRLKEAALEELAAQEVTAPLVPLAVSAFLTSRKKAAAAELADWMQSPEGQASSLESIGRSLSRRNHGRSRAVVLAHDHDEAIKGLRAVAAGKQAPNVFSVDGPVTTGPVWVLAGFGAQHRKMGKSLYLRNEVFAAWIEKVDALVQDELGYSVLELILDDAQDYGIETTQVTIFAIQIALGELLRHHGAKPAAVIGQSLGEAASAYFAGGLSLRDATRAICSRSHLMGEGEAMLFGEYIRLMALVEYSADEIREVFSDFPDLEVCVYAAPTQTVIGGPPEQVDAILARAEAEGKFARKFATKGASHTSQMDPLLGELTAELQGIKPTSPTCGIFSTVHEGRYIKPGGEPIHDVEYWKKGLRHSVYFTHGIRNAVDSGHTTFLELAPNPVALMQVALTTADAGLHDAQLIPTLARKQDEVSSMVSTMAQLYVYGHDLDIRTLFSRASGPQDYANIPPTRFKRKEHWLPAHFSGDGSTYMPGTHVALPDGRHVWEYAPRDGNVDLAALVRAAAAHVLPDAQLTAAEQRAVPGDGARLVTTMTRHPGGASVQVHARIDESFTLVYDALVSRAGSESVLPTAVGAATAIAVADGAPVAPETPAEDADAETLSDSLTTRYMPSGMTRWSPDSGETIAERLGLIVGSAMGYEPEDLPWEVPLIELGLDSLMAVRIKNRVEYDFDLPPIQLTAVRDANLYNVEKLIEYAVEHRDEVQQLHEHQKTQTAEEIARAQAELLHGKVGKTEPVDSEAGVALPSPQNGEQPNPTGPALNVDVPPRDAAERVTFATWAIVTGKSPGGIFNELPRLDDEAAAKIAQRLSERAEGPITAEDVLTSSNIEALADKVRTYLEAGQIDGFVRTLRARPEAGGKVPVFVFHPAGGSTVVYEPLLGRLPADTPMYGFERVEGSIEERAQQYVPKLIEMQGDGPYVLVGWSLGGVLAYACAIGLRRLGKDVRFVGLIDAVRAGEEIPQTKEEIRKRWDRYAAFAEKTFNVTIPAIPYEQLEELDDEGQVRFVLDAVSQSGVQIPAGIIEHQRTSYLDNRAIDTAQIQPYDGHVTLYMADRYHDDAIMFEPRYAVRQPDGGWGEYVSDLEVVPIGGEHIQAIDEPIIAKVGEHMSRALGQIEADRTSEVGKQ
UniProt A4I591, 1-473: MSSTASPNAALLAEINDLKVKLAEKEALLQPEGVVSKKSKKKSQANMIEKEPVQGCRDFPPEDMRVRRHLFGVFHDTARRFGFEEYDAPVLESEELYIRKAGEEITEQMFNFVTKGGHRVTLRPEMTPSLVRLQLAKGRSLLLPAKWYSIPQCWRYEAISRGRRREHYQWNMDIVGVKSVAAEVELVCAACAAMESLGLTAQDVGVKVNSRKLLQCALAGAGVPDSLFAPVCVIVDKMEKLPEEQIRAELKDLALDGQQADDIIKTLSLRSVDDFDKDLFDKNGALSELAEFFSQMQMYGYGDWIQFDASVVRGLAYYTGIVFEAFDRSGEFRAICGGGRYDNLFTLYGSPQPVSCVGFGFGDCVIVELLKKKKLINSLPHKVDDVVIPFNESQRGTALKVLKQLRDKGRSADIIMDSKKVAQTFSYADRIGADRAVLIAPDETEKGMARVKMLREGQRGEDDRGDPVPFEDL

Leishmania in macrophages: 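Cell assay of Leishmania donovani living inside macrophages; the read-out is not stated. Tested at 30 µM. The record gives no direction; compounds that gave an IC50 in retests scored well above the rest, so higher reads as stronger inhibition. About 69,000 compounds were tested under these conditions; 1.5% (about 1,000) showed 50% or more at least once.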
Pks13 thioesterase: 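Enzyme assay of the thioesterase domain of polyketide synthase 13; the read-out is not stated. Target: Polyketide synthase Pks13, Mycobacterium tuberculosis (UniProt I6X8D2). Compounds at 30 µM. Higher reads as stronger inhibition (inferred from which compounds were picked for retests). Of about 67,000 compounds tested this way, about 300 (0.46%) reached 50% or more in at least one test.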
LiHisRS: 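Histidine-tRNA ligase, Leishmania infantum (UniProt A4I591). Enzyme assay of histidyl-tRNA synthetase; the read-out is not stated. Compounds at 30 µM. Higher reads as stronger inhibition (inferred: compounds with an IC50 in retests scored well above the rest). The assay is labelled LdHisRS but filed under L. infantum. About 69,000 compounds were tested under these conditions; 0.6% (about 410) showed 50% or more at least once.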

Values are the deposited “Percent Effect”, in %. How 0% and 100% were set is not recorded. Most values in the screen are low, and negative values occur. The compounds are a random part of those screened. Two or more numbers in one place are separate tests of the same structure; such repeats can differ widely. A dash means the value is not listed here; it may have been measured.

| compound | Leishmania in macrophages | Pks13 thioesterase | LiHisRS |
|---|---|---|---|
| `c1ccc(CN2C[C@@H]3COC[C@]3(COCC3CCOCC3)C2)nc1` | - | -3.925% | 19.3% |
| `CNc1cc(C2CN(Cc3csc(C)n3)CCO2)nc(C)n1` (centres unmarked) | 11.35% | 13.14% | -4.828% |
| `O=C(c1sccc1Br)N(Cc1cccnc1)C1CC1` | 5.255% | -28.82% | 19.44% |
| `CN1CCCC2(CCN(c3cccc(C#N)n3)C2)C1=O` (centres unmarked) | 22.5% | -12.66% | 1.316% |
| `CN1CCN(c2ccc3ccc(C(=O)N4CCCO4)cn23)CC1.O=C(O)C(F)(F)F` | -0.8549% | - | - |
| `Cc1ccccc1N1CCCN(C(=O)CCc2nncn2C)CC1` | 36.6% | -7.101% | 14.16% |
| `COc1cccc(C(=O)C2CCCN(c3nccc(N)n3)C2)c1` (centres unmarked) | 43.81% | 2.375% | 3.226% |
| `CCc1nc(CCNc2ncccn2)sc1C` | 39.53% | -8.268% | 13.73% |
| `Cc1cccc(NC(=O)N2CCN(Cc3noc(C4CC4)n3)CC2)c1` | 13.48% | -19.97% | 4.348% |
| `CN1CCn2nc(-c3nc4ccccc4n3C)cc2C1` | 0.4817% | -8.243% | 19.67% |
| `[H][C@@]12C[C@H](C(=O)N(C)C)[C@@]([H])(CN(S(=O)(=O)c3cccc(C)c3)C1)O2` | 6.091% | - | - |
| `CC(C)N(C)Cc1n[nH]c2c1CCN(C(=O)c1ccc[nH]1)C2.O=C(O)C(F)(F)F` | 29.73% | - | - |
| `COCCN1CCC2(C1)c1ccccc1S(=O)(=O)N2Cc1ccccc1.O=C(O)C(F)(F)F` (centres unmarked) | 1.372% | - | - |
| `CCOCC1CN(Cc2cccnc2)Cc2nn(C)cc21` (centres unmarked) | - | -10.75% | 10.91% |
| `Cc1ccc(CN(CCN(C)C)C(=O)Cc2cn3ccccc3n2)o1` | 6.083% | -25.52% | 0% |
| `CCS(=O)(=O)Cc1csc(-c2ccc(S(C)(=O)=O)cc2)n1` | -1.337% | -5.773% | 22.12% |
| `O=C(c1ccno1)N1CCC2(CC(=O)N(c3ccc4c(c3)OCO4)C2)C1` (centres unmarked) | -0.2178% | -33.01% | 18% |
| `C[C@H]1CN(C(=O)N(C)C)C[C@@]12CCN(c1ccsc1)C2=O` | 19.29% | -12.79% | 16% |
| `CC(C)CCN1C[C@@H]2OCCN(c3ncc(F)cn3)[C@@H]2C1` | - | -40.35% | 15.28% |
| `N[C@H]1CN(C(=O)CCCc2ccc(F)cc2)C[C@@H]1C1CC1` | 8.132% | -6.129% | 6.557% |
| `O=C(NCCCn1cccn1)C1(c2ccccc2)CCOCC1` | 21.2% | 5.034% | 13.79% |
| `CC(=O)N1CCC(CCNC(C)c2cc(F)cc(F)c2)CC1` (centres unmarked) | 14.51% | -14.72% | 0% |
| `O=C(O)CCc1cc2n(n1)CCCN(C(=O)c1ccc(F)cc1F)C2` | -11.13% | 5.906% | 16.8% |
| `Cc1occc1C(=O)N1CCc2c(CNS(C)(=O)=O)cncc2C1` | - | -17.73% | 5.556% |
| `Cc1cnn(CC2CN(Cc3nnc(C4CC4)n3C)CCO2)c1` (centres unmarked) | 4.206% | -6.352% | 11.61% |
| `COC[C@]12COC[C@H]1CN(C(=O)C1CCSCC1)C2` | - | -33.35% | 6% |
| `O=C1CCCN1CCc1nc(-c2ccsc2)no1` | 26.09% | -16.3% | 6.612% |
| `CC(C)(C)C(=O)NS(=O)(=O)c1ccc(C#N)cc1C(F)(F)F` | 19.93% | -2.707% | 30.95% |
| `COCC1CN(Cc2ccccn2)Cc2cn(C)nc21` (centres unmarked) | - | -18.4% | 14.71% |
| `CCn1cc2c(n1)C(COCC1CC1)CN(C(=O)c1cnoc1C)C2` (centres unmarked) | 9.861% | -34.7% | 6.897% |
| `COc1ccc(S(=O)(=O)NC(=O)c2c(C)noc2C(C)C)cc1C` | 4.811% | 6.665% | 7.547% |
| `O=S(=O)(NCc1ccc(S(=O)(=O)N2CCCC2)s1)c1ccc(Cl)c(Cl)c1` | 0.3934% | 40.35% | -2.632% |
| `Cc1cccc(OC2CCN(C(=O)NCCn3ccnc3)CC2)c1C` | 25.19% | -28.13% | 6.806% |
| `Cn1cc(CN2CCC(F)(F)C3(CCN(c4ncccn4)C3)C2)cn1.O=C(O)C(F)(F)F.O=C(O)C(F)(F)F` (centres unmarked) | -9.529% | - | - |
| `CCn1cc(CNC(=O)c2nn(CC)cc2Br)cn1` | -28.06% | -25.53% | 17.7% |
| `Cc1ncsc1C(=O)N(C)CCc1ccncc1` | -17.83% | -4.217% | 0.8% |
| `[H][C@@]12CS(=O)(=O)C[C@]1([H])N(Cc1ccc(CC)cc1)CCN2C(=O)C(C)C` | 11.27% | - | - |
| `Cc1ccc(OCC(=O)NC2CCN(S(C)(=O)=O)CC2)cc1` | 6.199% | -12.69% | 6.838% |
| `Cc1noc(CNc2cccc(C(=O)N3CCCC(O)C3)c2)n1` (centres unmarked) | 16.37% | -19.26% | 5.479% |
| `CN(CCc1ccncc1)C1CCCN(Cc2noc(C3CC3)n2)C1` (centres unmarked) | 33.69% | -11.02% | 6.742% |
| `Cn1nnnc1SCCNC(=O)C1CCN(C(=O)C2CCCC2)CC1` | 4.568% | -20.63% | 10.96% |
| `CCN(CC)c1nc2ccsc2c(=O)n1CCC(=O)NCc1ccco1` | 0.3866% and 19.28% | -49.47% | 7.895% |
| `CC(NC(=O)NCc1ccccn1)c1cccs1` (centres unmarked) | -21.71% | 0.4887% | 18.07% |
| `CC(NCCn1cccn1)c1ccccc1F` (centres unmarked) | 13.41% | -18.09% | 11.43% |
| `Cc1nc(CN2C[C@@H]3CN(C(=O)c4cccn4C)C[C@@H]3C2=O)cs1` | - | -12.86% | 15.04% |
| `Cc1nc(C(=O)N(CC(=O)N(C)C)CC(F)(F)F)c2ccccn12` | 12.21% | - | 18.25% |
| `C1CCN(CCN2CCCCC2C2OCCO2)CC1` (centres unmarked) | 33.44% | -17.66% | 20.41% |
| `CC(C)OCCCNC(=O)CN1CCN(c2nccs2)CC1` | -18.25% | -16.03% | 8.333% |
| `NC(=O)c1cc(C2CCCN(C(=O)CCc3ccncc3)C2)n[nH]1` (centres unmarked) | 12.4% | -11.84% | 3.846% |
| `Cc1sc(-c2ccco2)nc1C(=O)NCC1CCOC1` (centres unmarked) | 30.52% | 1.022% | 21.92% |
| `CO[C@@H]1CCN(c2nnc(C)s2)C[C@@H]1Cc1ccccc1.O=C(O)C(F)(F)F` | 9.959% | - | - |
| `[H][C@@]12CC(=O)N(Cc3csc(C)n3)[C@@]1([H])CCN2S(=O)(=O)CC` | 11.91% | - | - |
| `COC(=O)CSc1nnc2[nH]c(=O)c3c(n12)CCCC3` | 2.084% and 16.61% | -19.99% | 8.696% |

Some entries from above, unchanged:

compound,Leishmania in macrophages,Pks13 thioesterase,LiHisRS
CC(C)N(C)Cc1n[nH]c2c1CCN(C(=O)c1ccc[nH]1)C2.O=C(O)C(F)(F)F,29.73%,-,-
CCc1nc(CCNc2ncccn2)sc1C,39.53%,-8.268%,13.73%
CCn1cc(CNC(=O)c2nn(CC)cc2Br)cn1,-28.06%,-25.53%,17.7%
O=C1CCCN1CCc1nc(-c2ccsc2)no1,26.09%,-16.3%,6.612%
C1CCN(CCN2CCCCC2C2OCCO2)CC1 (centres unmarked),33.44%,-17.66%,20.41%

The values are deposited in ChEMBL (CHEMBL3988442, “University of Dundee, Small-Polar-MMV Screening Library” (2021)).